No constants are given. Whether binding was seen depends on the method and setting. Binding seen in cells or lysates may run through a third protein. Some entries that bind do so weakly or less than the wild type.
Columns and labels:
[1] = target: MET (human (endogenous in BXPC-3)) (UniProt P08581); assay: co-IP; endogenous co-immunoprecipitation from BXPC3 or KPC cell lysates (IP Cell Lysis Buffer); 5 µg antibody (anti-MET, anti-PD-L1 or anti-CMTM6) on 25 µL protein A/G magnetic beads, overnight at 4 °C; Western blotting
[2] = target: MET (mouse) (mouse (endogenous in KPC)) (UniProt P16056); assay: as above

Chains of the proteins cited; added tags and fusions are not shown. Residues count along the entry.
UniProt P08581, residues 25-1390: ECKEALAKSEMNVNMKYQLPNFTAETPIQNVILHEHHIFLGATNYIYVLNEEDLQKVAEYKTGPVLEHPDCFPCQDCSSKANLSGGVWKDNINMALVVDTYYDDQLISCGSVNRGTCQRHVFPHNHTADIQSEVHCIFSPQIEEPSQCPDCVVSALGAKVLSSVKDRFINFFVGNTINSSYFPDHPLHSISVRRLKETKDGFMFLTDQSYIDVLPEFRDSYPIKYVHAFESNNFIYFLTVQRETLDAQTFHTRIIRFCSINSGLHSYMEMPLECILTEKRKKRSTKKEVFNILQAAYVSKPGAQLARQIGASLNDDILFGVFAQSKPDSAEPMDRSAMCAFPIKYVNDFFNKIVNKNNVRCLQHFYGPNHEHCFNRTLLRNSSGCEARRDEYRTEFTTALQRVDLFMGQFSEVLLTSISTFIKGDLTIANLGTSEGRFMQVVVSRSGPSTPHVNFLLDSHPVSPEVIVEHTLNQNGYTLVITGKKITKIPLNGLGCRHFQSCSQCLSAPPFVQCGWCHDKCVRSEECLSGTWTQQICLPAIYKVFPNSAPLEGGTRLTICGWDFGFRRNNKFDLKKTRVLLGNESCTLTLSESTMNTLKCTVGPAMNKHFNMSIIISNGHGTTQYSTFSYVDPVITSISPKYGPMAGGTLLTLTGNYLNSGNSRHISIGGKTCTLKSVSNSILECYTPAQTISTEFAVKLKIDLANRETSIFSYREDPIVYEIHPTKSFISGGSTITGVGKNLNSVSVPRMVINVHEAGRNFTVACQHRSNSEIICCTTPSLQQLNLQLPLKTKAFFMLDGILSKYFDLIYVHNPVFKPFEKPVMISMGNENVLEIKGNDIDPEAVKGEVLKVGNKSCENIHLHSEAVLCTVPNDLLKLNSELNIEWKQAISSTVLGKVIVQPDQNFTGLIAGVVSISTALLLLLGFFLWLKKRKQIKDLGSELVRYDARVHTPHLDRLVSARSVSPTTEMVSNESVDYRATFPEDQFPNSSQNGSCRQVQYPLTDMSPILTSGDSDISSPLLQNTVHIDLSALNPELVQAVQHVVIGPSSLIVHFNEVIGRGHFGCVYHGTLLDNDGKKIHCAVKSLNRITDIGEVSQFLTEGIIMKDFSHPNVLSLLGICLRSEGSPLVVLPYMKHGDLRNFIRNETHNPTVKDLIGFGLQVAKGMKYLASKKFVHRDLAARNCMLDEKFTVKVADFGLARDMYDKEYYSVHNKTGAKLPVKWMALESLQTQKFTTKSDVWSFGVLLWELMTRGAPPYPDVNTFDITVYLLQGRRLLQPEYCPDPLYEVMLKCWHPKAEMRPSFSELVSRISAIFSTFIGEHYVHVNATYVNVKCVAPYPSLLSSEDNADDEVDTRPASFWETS
UniProt P16056, residues 25-1379: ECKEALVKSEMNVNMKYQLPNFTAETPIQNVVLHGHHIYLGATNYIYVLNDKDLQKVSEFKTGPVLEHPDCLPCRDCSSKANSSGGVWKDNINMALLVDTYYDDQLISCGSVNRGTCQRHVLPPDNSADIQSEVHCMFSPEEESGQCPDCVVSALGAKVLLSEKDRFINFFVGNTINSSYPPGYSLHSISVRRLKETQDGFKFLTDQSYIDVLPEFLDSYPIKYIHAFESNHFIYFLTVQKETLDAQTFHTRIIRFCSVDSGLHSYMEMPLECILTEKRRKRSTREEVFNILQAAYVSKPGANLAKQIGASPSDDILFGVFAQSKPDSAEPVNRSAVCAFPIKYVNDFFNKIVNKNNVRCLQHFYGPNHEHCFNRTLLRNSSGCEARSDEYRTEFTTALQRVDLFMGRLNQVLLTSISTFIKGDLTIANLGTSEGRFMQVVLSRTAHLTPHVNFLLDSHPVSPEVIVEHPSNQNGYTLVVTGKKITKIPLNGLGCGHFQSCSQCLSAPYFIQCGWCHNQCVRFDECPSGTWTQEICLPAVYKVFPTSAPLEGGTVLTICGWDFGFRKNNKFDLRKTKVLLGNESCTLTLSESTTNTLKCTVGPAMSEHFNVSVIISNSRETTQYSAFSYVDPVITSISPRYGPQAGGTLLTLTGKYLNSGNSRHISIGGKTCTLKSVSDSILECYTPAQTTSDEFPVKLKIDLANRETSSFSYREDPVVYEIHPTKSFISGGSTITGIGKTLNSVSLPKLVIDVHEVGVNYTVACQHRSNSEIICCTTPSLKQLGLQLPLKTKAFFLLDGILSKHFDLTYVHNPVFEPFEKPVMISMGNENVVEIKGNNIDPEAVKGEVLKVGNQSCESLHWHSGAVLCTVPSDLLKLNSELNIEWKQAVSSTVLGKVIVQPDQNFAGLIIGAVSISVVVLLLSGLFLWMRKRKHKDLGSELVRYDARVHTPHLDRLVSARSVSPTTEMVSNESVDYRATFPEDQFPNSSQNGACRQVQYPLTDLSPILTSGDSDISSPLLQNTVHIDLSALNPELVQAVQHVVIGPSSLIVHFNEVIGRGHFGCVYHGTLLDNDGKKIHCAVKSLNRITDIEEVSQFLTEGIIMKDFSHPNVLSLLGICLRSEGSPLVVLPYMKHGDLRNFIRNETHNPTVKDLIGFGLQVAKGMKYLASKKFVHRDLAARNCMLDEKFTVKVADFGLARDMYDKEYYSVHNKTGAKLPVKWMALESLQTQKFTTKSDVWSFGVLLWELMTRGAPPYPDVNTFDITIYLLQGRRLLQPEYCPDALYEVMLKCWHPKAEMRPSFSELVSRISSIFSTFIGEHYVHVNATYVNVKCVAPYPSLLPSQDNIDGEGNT
UniProt Q9NZQ7, residues 19-290: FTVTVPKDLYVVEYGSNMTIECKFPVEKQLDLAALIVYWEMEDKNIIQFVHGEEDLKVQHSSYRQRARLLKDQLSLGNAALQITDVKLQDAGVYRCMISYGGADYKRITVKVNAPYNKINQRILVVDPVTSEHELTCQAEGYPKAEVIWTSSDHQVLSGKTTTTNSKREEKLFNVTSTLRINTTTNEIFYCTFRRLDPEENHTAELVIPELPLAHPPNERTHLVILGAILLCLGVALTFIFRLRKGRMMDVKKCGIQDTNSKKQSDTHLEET
UniProt Q9EP73, residues 19-290: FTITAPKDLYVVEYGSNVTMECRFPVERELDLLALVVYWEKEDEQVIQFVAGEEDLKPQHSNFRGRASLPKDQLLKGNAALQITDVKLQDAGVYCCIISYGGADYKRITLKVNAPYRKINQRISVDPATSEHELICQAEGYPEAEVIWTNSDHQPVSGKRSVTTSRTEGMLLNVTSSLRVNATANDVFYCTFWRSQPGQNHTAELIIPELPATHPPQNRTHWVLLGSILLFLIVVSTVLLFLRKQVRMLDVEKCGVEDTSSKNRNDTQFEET

binding [1]	binding [2]	Molecule
binds		PD-1 ligand 1 (from UniProt Q9NZQ7 19-290)
	binds	PD-L1 (mouse) (from UniProt Q9EP73 19-290) (ligand)
binds		CMTM6 (protein, UniProt Q9NX76 1-183) MENGAVYSPTTEEDPGPARGPRSGLAAYFFMGRLPLLRRVLKGLQLLLSLLAFICEEVVSQCTLCGGLYFFEFVSCSAFLLSLLILIVYCTPFYERVDTTKVKSSDFYITLGTGCVFLLASIIFVSTHDRTSAEIAAIVFGFIASFMFLLDFITMLYEKRQESQLRKPENTTRAEALTEPLNA
